Test results taken from publication PMC5696344.
Numbering of substitutions follows the chain as printed. These are yes or no findings as the source states them, for the method shown. For some assays here: In cells and extracts the contact can be indirect. Some entries that bind do so weakly or less than the wild type. For some assays here: Sequences can lack the tags named with a protein.

By UniProt entry, the sequences of proteins in these tests, tags left out.
UniProt Q24572: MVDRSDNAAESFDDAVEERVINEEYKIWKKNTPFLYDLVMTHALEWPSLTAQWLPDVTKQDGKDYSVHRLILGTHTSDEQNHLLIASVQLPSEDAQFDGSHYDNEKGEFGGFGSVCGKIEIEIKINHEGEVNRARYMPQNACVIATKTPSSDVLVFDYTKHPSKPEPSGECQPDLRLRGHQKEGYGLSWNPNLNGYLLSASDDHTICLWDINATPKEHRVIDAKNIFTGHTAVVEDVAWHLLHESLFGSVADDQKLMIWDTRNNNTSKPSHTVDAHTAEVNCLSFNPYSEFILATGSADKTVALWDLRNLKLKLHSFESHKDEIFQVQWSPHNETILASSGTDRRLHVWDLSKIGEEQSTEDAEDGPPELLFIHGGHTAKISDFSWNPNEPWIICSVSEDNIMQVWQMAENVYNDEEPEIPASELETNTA

Key:
[1] = target: T1, Flag-tagged truncated form of Drosophila Ash1 (Ash1C, amino acids 1146–2226) (Drosophila) (UniProt Q9VW15); assay: co-IP; western blot (antibodies against Flag, Nurf55 and Mrg15) of the anti-Flag affinity-purified material from S2 cells expressing Flag-Ash1C; washing with 500 mM KCl
T1 sequence: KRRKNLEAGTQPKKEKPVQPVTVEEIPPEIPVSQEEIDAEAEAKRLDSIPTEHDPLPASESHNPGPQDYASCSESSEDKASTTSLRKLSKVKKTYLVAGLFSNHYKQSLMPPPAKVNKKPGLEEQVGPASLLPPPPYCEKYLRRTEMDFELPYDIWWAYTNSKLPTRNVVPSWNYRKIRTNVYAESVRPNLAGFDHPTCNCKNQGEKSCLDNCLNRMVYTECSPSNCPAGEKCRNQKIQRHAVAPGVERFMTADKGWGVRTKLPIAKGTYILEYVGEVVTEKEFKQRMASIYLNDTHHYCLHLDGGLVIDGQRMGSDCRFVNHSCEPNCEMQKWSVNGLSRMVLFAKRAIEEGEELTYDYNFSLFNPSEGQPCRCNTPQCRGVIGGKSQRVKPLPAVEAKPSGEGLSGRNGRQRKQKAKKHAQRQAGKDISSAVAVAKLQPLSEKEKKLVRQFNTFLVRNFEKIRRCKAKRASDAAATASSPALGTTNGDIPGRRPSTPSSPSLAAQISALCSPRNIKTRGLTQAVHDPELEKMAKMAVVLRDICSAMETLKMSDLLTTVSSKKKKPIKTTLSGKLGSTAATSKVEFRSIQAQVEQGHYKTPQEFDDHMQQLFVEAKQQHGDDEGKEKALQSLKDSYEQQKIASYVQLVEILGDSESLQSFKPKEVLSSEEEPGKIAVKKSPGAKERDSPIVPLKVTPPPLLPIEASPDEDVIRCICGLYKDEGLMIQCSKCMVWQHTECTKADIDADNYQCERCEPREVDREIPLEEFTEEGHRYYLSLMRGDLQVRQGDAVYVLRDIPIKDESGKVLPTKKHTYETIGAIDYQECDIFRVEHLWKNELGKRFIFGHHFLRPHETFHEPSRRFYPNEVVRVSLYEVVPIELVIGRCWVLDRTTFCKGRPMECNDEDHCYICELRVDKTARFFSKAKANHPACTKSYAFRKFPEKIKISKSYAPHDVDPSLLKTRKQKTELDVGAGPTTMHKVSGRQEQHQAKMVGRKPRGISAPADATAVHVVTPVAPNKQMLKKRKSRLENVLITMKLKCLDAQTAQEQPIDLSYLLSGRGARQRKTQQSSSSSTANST

[2] = target: T1, Flag-tagged truncated form of Drosophila Ash1 (Ash1C, amino acids 1146–2226) (Drosophila); assay: co-IP; Flag-tagged Ash1C, its truncations and alanine substitutions; cells not given
[3] = target: T2, Flag-tagged Ash1C with the R1288A substitution (Drosophila) (UniProt Q9VW15); assay: as above
T2 sequence: T1 sequence with R143A

[4] = target: Flag-tagged C-terminal region of hAsh1L (amino acids 1465–2964) (human) (UniProt Q9NR48); assay: co-IP; human proteins (Supplementary Fig. 1d, e); set-up not shown
[5] = target: T3, recombinant Drosophila Ash1C (1146–2226 aa) (Drosophila) (UniProt Q9VW15); assay: co-purification of coexpressed recombinant proteins; Ash1C and Mrg15 coexpressed and co-purified as a complex; host and steps not stated
T3 sequence: T1 sequence

[6] = target: T1, Flag-tagged truncated form of Drosophila Ash1 (Ash1C, amino acids 1146–2226) (Drosophila); assay: co-IP; Flag-tagged Ash1C, its truncations and alanine substitutions; cells not given; remark: listed apart in the source
[7] = target: Drosophila Ash1 (endogenous) (Drosophila (endogenous in S2)) (UniProt Q9VW15); assay: co-IP; endogenous proteins; 2 μg antibodies against Ash1 or Mrg15 (rabbit normal IgG as control) with 2 mg S2 cell nuclear extract in Buffer C at 4 °C overnight; protein G agarose; washed with 500 mM KCl, 0.1% NP40; western blot

For “Drosophila Nurf55 (from UniProt Q24572 1-430)”, the binding [1] was “binds”, the binding [2] was “binds” and the binding [3] was “binds”.

For RbAp48 (from UniProt Q09028 1-425), the binding [4] was “binds”.

B1: recombinant Drosophila Mrg15 (protein, UniProt Q9Y0I1 1-424)
chain: MGEVKPAKVENYSTGTDANTLFVDGERVLCFHGPLIYEAKVLKTKPDATPVEYYIHYAGWSKNWDEWVPENRVLKYNDDNVKRRQELARQCGERSKKDNKKGSAKAKKMEQMRNESRASTPSKDSNTSQSTASSTPTTSAGPGSKSEAGSTGTTTTNSTANSTTSRAHRKSTQSTPSTARPGTPSDKKEDPAAAETTEEEGPVAPKKKRMSEQRPSLTGSDVAEKPLPPTTTPSTPTTEPAPCVESEEAYAAKVEVKIKIPDELKHYLTDDWYAVVREHKLLELPAKVTVQQISEQYLAHKKSVKSTSASKEVAINDVLDGIVEYFNVMLGSQLLYKFERTQYADVMQKHPDTPLSELYGSFHLLRLFVRLGSMLSYSALDQQSMQNLLTHVQDFLKFLVKNSSIFFSMSNFINVDPEYVRNAQ
With B1 the binding [5] was “binds”.

B2: Drosophila Mrg15 (protein, UniProt Q9Y0I1 1-424)
chain: B1 chain
B2 was tested, and the binding [6] was “binds”, the binding [1] was “binds” and the binding [7] was “binds”.
